The text below walks through data of article PMC3322157.

This assay deals with fructose bis phosphate aldolase (mouse) (mouse (endogenous in mouse tissues)). Description: co-IP; polyclonal fructose bisphosphate aldolase antibody linked to agarose beads; tissue extracts of mice with wild-type SCHAD, 4°C overnight; Western blot for SCHAD; albumin blank. A general note: A western blot detects proteins with antibodies after separation by electrophoresis.

Results are given in words; binding and its absence hold for the method and conditions named. In cells and extracts the contact can be indirect. A result given as binding can be weak or reduced; the word gives no strength.

B1: SCHAD (endogenous, mouse) (enzyme, UniProt Q61425 13-314)
chain: SSSSSASAAAKKILIKHVTVIGGGLMGAGIAQVAAATGHTVVLVDQTEDILAKSKKGIEESLKRMAKKKFTENPKAGDEFVEKTLSCLSTSTDAASVVHSTDLVVEAIVENLKLKNELFQRLDKFAAEHTIFASNTSSLQITNIANATTRQDRFAGLHFFNPVPMMKLVEVIKTPMTSQKTFESLVDFCKTLGKHPVSCKDTPGFIVNRLLVPYLIEAVRLHERGDASKEDIDTAMKLGAGYPMGPFELLDYVGLDTTKFILDGWHEMEPENPLFQPSPSMNNLVAQKKLGKKTGEGFYKYK
On to B1, for which the binding entry was “binds”.
